Two sequences from publication PMC11922746, “SPO11 dimers are sufficient to catalyse DNA double-strand breaks in vitro” (Nature, 2024) can be followed below.

Residue numbers refer to the chain shown, from its start. The exact form of at least one protein or probe is not confirmed. For part of these data: A negative result means that nothing was seen under these conditions. Tags and fusion partners may be left off the protein sequences shown. For part of these data: A weaker result is weaker than the reference pair of the same experiment.

The target in data set [1] is T1, MBP-SPO11 (Mus musculus) (UniProt Q9WTK8).
T1 sequence (looked up, limits assumed): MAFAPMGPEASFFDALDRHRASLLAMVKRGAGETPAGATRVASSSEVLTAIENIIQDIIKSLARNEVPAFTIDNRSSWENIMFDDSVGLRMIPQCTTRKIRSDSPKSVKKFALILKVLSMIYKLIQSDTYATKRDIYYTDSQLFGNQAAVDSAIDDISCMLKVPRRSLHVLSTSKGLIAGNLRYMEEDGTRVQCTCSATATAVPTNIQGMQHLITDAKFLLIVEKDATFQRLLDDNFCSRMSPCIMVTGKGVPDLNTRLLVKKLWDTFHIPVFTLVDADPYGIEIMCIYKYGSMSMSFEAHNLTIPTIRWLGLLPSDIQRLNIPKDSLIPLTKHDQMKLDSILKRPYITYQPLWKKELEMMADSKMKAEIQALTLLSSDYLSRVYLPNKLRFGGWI
In words: covalent complex, SDS-PAGE. To be noted: covalent 5' adduct after cleavage; recombinant protein; protein details: MBP; label: 3' 6-FAM on top strand.

For data set [2], the target named is T2, MBP-SPO11 Y137F/Y138F (YFYF) (Mus musculus) (UniProt Q9WTK8).
T2 sequence (looked up, limits assumed): T1 sequence (looked up, limits assumed) with Y137F, Y138F
Nature of the data set: covalent complex, SDS-PAGE. To be noted: no covalent adduct, non-covalent binding not tested here; recombinant protein; protein details: MBP; label: 3' 6-FAM on top strand.

The target in data set [3] is T1, MBP-SPO11 (Mus musculus). In words: EMSA. To be noted: 5 mM EDTA, 0.1 nM DNA, SPO11 alone does not bind efficiently, EMSA: 25 mM Tris-HCl pH 7.5, 7.5% glycerol, 50 mM NaCl, 2 mM DTT, 1 mg/ml BSA, 37 C, 30 min, 0.1 nM labelled hairpin or 100 ng plasmid in 20 µl, recombinant protein, protein details: MBP, label: 5' 32P, folded or branched DNA. Background: In EMSA bound probe runs differently from free probe, usually more slowly.

Regarding “CTAGTATAGAGCCGGCGCGCCATGTCTAGATAGCGTTAGGTCTGCCGAATAGTACTACTCGGATCCCGAGCGAACCACGC (double strand) [80-bp duplex, 3' 6-FAM (cb1593/cb100)]”, the binding result is on record as “binds” with MBP-SPO11 (Mus musculus) [1] and “no binding” in data set [2].

Turning to “TAGCAATGTAATCGTCTATGACGTTAACGTCATAGACGATTACATTGC [cb957 hairpin, 25 bp, 2-nt 5' overhang]”, the binding result with MBP-SPO11 (Mus musculus) [3] is on record as “binds more weakly”.
